Measurements: patent US20220324970A1
No constants are given. Whether binding was seen depends on the method and setting. Some entries that bind do so weakly or less than the wild type.

Protein sequences, listed by entry. Tags and fused reporters are not part of them. Lines headed by an entry give the natural chain unless they say otherwise; changes in a name come on top.
UniProt P01833: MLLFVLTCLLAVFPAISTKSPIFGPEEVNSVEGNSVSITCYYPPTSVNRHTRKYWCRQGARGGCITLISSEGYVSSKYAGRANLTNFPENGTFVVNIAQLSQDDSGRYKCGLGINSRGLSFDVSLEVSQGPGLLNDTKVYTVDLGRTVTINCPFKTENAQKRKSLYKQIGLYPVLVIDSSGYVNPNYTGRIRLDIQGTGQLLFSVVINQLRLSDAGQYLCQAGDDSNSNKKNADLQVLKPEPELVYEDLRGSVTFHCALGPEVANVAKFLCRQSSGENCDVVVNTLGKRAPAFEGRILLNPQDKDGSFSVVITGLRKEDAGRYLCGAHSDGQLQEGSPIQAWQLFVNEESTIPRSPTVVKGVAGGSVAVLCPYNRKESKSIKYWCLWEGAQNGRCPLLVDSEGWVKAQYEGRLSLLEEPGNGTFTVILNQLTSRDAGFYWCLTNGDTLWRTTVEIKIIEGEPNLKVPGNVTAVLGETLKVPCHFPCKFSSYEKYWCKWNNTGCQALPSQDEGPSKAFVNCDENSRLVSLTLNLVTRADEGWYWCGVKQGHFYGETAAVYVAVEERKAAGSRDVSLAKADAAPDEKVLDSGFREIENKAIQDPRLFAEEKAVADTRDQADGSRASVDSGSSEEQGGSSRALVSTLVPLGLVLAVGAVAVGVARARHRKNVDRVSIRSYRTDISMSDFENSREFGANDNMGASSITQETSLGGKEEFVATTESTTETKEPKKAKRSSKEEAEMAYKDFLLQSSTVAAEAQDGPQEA

Tests used:
[1] = molecular target: recombinant dimeric IgA2 construct; assay: BLI: hpIgR alone binding to immobilized IgA
[2] = molecular target: recombinant dimeric IgA2 construct; assay: BLI: hpIgR pre-complexed with VHH2 binding to immobilized IgA
[3] = molecular target: recombinant dimeric IgA2 construct; assay: BLI: hpIgR pre-complexed with VHH3 binding to immobilized IgA
[4] = molecular target: recombinant dimeric IgA2 construct; assay: BLI: hpIgR pre-complexed with VHH4 binding to immobilized IgA
[5] = molecular target: recombinant dimeric IgA2 construct; assay: BLI: hpIgR pre-complexed with VHH5 binding to immobilized IgA
[6] = molecular target: recombinant dimeric IgA2 construct; assay: BLI: hpIgR pre-complexed with VHH6 binding to immobilized IgA
[7] = molecular target: recombinant dimeric IgA2 construct; assay: BLI: hpIgR pre-complexed with VHH7 binding to immobilized IgA
[8] = molecular target: recombinant dimeric IgA2 construct; assay: BLI: hpIgR pre-complexed with VHH9 binding to immobilized IgA
[9] = molecular target: recombinant dimeric IgA2 construct; assay: BLI: hpIgR pre-complexed with VHH10 binding to immobilized IgA
[10] = molecular target: recombinant dimeric IgA2 construct; assay: BLI: hpIgR pre-complexed with VHH11 binding to immobilized IgA
[11] = molecular target: recombinant dimeric IgA2 construct; assay: BLI: hpIgR pre-complexed with VHH12 binding to immobilized IgA
[12] = molecular target: recombinant dimeric IgA2 construct; assay: BLI: hpIgR ECD pre-complexed with VHH2-mono-Fc over immobilized dIgA2
[13] = molecular target: recombinant dimeric IgA2 construct; assay: BLI: hpIgR ECD pre-complexed with VHH3-mono-Fc over immobilized dIgA2
[14] = molecular target: recombinant dimeric IgA2 construct; assay: BLI: hpIgR ECD pre-complexed with VHH4-mono-Fc over immobilized dIgA2
[15] = molecular target: recombinant dimeric IgA2 construct; assay: BLI: hpIgR ECD pre-complexed with VHH5-mono-Fc over immobilized dIgA2
[16] = molecular target: recombinant dimeric IgA2 construct; assay: BLI: hpIgR ECD pre-complexed with VHH6-mono-Fc over immobilized dIgA2
[17] = molecular target: recombinant dimeric IgA2 construct; assay: BLI: hpIgR ECD pre-complexed with VHH7-mono-Fc over immobilized dIgA2
[18] = molecular target: recombinant dimeric IgA2 construct; assay: BLI: hpIgR ECD pre-complexed with VHH9-mono-Fc over immobilized dIgA2
[19] = molecular target: recombinant dimeric IgA2 construct; assay: BLI: hpIgR ECD pre-complexed with VHH10-mono-Fc over immobilized dIgA2
[20] = molecular target: recombinant dimeric IgA2 construct; assay: BLI: hpIgR ECD pre-complexed with VHH11-mono-Fc over immobilized dIgA2
[21] = molecular target: recombinant dimeric IgA2 construct; assay: BLI: hpIgR ECD pre-complexed with VHH12-mono-Fc over immobilized dIgA2
[22] = molecular target: recombinant dimeric IgA2 construct; assay: BLI: hpIgR ECD alone over immobilized dIgA2 (amine-reactive sensor), 2:1 fit

Measured: binding

human pIgR extracellular domain (ECD) (from UniProt P01833 19-638) (receptor)
binds: all assays above
